# Primary screen of a compound library

Protein sequences, listed by entry. Tags and fused reporters are not part of them. Residues count along the entry.
UniProt I6X8D2, whole entry: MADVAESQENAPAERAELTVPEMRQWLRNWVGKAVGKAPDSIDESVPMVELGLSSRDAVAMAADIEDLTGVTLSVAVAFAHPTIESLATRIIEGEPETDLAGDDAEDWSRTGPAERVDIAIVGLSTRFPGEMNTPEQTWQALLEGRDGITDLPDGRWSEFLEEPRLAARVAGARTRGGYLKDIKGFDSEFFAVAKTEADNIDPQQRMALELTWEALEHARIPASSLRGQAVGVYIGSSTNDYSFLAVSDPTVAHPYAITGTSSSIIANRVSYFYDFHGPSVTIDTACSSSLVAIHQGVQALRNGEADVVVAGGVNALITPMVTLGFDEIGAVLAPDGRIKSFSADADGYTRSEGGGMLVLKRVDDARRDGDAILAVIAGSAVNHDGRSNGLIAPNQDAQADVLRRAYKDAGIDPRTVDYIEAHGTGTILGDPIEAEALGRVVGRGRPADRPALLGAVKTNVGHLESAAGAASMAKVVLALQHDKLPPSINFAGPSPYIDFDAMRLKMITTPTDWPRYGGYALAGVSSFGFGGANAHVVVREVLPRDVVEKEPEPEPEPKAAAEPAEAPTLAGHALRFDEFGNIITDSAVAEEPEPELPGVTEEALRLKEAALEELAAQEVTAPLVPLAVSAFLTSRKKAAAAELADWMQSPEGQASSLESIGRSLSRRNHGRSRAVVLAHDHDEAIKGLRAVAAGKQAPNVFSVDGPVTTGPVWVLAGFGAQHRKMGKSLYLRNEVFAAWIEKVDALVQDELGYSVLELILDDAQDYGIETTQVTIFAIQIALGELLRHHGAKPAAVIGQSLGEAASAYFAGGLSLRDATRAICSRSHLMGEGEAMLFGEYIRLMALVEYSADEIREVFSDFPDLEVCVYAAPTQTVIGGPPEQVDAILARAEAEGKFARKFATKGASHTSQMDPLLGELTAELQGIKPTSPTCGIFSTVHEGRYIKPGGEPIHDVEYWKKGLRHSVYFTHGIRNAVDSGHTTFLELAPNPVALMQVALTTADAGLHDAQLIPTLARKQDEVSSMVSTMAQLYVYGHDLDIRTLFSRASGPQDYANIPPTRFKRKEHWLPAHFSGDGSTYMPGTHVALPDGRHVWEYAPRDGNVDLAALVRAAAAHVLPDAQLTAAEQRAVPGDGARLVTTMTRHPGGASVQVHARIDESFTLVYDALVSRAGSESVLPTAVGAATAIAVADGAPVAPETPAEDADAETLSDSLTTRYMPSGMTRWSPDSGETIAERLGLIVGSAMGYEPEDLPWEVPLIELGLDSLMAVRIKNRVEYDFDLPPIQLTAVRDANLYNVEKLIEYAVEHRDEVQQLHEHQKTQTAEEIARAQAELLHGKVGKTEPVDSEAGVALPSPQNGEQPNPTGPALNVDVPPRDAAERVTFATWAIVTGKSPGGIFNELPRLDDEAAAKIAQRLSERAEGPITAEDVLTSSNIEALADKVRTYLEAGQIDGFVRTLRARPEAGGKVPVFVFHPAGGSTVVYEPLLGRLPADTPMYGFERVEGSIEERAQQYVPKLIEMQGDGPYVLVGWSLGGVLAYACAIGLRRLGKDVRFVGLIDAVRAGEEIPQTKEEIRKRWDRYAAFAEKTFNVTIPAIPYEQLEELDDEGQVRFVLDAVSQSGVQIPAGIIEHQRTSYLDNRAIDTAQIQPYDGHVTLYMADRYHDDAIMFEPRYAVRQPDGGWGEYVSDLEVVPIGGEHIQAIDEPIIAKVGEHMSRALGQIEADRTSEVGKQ
UniProt P9WNZ1, whole entry: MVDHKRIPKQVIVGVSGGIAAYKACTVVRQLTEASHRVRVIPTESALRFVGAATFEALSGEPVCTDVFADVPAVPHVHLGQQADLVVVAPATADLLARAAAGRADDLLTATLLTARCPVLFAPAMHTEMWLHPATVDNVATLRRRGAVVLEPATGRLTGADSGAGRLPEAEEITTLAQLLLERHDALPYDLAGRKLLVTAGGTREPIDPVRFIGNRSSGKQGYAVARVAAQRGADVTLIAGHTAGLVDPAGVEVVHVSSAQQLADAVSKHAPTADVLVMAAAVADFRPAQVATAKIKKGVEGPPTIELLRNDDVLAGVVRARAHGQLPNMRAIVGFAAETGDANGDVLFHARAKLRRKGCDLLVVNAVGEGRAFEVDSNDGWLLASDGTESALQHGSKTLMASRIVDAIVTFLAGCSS
UniProt P9WFT3, whole entry: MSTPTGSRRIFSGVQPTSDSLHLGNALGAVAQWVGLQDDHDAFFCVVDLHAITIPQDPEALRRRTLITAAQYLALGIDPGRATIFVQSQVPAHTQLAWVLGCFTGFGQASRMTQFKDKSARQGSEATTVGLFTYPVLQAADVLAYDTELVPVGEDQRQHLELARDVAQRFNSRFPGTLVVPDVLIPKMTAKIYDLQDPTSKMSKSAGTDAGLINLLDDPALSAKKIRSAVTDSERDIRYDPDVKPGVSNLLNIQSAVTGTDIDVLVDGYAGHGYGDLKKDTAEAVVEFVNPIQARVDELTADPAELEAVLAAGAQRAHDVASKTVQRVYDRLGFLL
UniProt A4I591, 1-473: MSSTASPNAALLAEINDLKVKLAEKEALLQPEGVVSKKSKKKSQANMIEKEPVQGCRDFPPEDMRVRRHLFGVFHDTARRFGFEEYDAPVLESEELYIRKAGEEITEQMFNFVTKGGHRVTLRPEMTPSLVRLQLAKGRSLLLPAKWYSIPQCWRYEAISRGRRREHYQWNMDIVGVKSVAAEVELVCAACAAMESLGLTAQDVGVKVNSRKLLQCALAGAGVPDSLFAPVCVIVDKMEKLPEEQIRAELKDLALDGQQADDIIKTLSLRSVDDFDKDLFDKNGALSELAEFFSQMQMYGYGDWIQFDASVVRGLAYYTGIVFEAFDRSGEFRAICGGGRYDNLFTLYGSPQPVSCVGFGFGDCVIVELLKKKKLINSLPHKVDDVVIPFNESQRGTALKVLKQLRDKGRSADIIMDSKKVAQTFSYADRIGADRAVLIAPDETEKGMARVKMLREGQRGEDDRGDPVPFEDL
UniProt Q4DA54, 1-478: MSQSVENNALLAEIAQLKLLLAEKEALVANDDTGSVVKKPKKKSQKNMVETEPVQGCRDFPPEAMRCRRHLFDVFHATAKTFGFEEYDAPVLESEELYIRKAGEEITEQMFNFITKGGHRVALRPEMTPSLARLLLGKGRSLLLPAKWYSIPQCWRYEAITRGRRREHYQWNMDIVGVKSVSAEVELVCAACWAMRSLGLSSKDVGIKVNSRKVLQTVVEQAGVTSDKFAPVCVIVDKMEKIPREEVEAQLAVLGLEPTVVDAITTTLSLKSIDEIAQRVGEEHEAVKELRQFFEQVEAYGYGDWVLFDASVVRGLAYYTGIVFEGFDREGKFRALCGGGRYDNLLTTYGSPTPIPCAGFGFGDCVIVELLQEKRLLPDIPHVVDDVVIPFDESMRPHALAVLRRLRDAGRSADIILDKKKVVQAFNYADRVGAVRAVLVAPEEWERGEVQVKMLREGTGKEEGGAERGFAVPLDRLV

The values are deposited in ChEMBL (CHEMBL3988442, “University of Dundee, Small-Polar-MMV Screening Library” (2021)).

Pks13 thioesterase: 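Enzyme assay of the thioesterase domain of polyketide synthase 13; the read-out is not stated. Target: Polyketide synthase Pks13, Mycobacterium tuberculosis (UniProt I6X8D2). Concentration: 30 µM. Higher reads as stronger inhibition (inferred from which compounds were picked for retests). Of about 67,000 compounds tested this way, about 300 (0.46%) reached 50% or more in at least one test.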
Toxoplasma: 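Assay of Toxoplasma gondii numbers, read through their beta-galactosidase reporter with a colour substrate. Concentration: 10 µM. The record gives no direction; the compounds picked for IC50 retests had high values, so higher reads as fewer parasites. Size under these conditions: about 67,000 compounds, about 260 of them at 50% or above in at least one test.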
CoaBC: 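Coenzyme A biosynthesis protein CoaBC, Mycobacterium tuberculosis (UniProt P9WNZ1). Enzyme assay of CoaBC with a phosphate dye (Biomol Green) read at 650 nm. Compounds at 30 µM. Higher reads as stronger inhibition, judged from the few compounds that gave an IC50. Most strong results did not repeat in a second test. Of about 67,000 compounds tested this way, about 40 (0.06%) reached 50% or more in at least one test.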
MtTrpRS: 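Tryptophan-tRNA ligase, Mycobacterium tuberculosis (UniProt P9WFT3). Enzyme assay of tryptophanyl-tRNA synthetase; the read-out is not stated. Tested at 10 µM. Direction is not recorded; retested compounds ran higher, which suggests that high means inhibition. Size under these conditions: about 65,000 compounds, about 64 of them at 50% or above in at least one test.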
LiHisRS: 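Enzyme assay of histidyl-tRNA synthetase; the read-out is not stated. Target: Histidine-tRNA ligase, Leishmania infantum (UniProt A4I591). Compounds at 30 µM. The record gives no direction; compounds that gave an IC50 in retests scored well above the rest, so higher reads as stronger inhibition. The assay is labelled LdHisRS but filed under L. infantum. Of about 69,000 compounds tested this way, about 410 (0.6%) reached 50% or more in at least one test.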
TcHisRS: 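Histidine-tRNA ligase, Trypanosoma cruzi CL Brener (UniProt Q4DA54). Enzyme assay of histidyl-tRNA synthetase; the read-out is not stated. Tested at 30 µM. Direction is inferred from retests: higher values go with stronger inhibition. About 69,000 compounds were tested under these conditions; 0.045% (about 31) showed 50% or more at least once.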

Values are the deposited “Percent Effect”, in %. The controls that fix the scale are not given in the record; negative values are as filed. The compounds are a random part of those screened.

- CC(C(=O)N1CCCN(Cc2cscn2)CC1)N1CCOCC1 (stereo not shown) : Pks13 thioesterase: -12.77%; Toxoplasma: 5.411%; CoaBC: 4.348%; MtTrpRS: -5.304%; LiHisRS: 14.68%; TcHisRS: 10%
- COc1ccccc1N1CCC(N2CCOCC(CO)C2)CC1 (stereo not shown) : Pks13 thioesterase: -16.35%; Toxoplasma: -21.75%; CoaBC: -20%; MtTrpRS: 1.941%; LiHisRS: 8.571%; TcHisRS: 10.31%
- Cc1nc(CN2CCCC(N(C)c3cnc4ccccc4n3)C2)no1 (stereo not shown) : Pks13 thioesterase: -5.853%; Toxoplasma: -7.346%; CoaBC: 1.966%; MtTrpRS: 1.282%; LiHisRS: 17.2%; TcHisRS: -2.469%
- CC(NCc1ccccc1Br)c1ccc2[nH]c(=O)[nH]c2c1 (stereo not shown) : Pks13 thioesterase: -2.167%; Toxoplasma: -0.2872%; CoaBC: 5.575%; MtTrpRS: 1.487%; LiHisRS: 16.67%; TcHisRS: 0%
- COCCCNS(=O)(=O)c1cccc(CSC)c1 : Pks13 thioesterase: -10.09%; Toxoplasma: 16.76%; CoaBC: -2.87%; MtTrpRS: 4.731%; LiHisRS: 14.16%; TcHisRS: 1.754%
- CCC(CC)C(=O)N1CCc2nc(N3CCCC3)nc(C)c2CC1 : Pks13 thioesterase: 23.8%; Toxoplasma: 14.96%; CoaBC: 6.767%; MtTrpRS: -1.521%; LiHisRS: 10.26%; TcHisRS: 6.098%
- Cc1nn(C)c(Cl)c1CNCc1cccnc1N1CCCCC1.Cl : Toxoplasma: -1.091%
- [H][C@]12CC[C@@H](Nc3cccnn3)[C@@]1([H])CN(Cc1ccc3[nH]ccc3c1)C2 : Toxoplasma: -21.51%
- O=C1CCC(=O)N1c1nn(Cc2cccc(F)c2)cc1Cl : Pks13 thioesterase: 7.848%; Toxoplasma: 10.38%; CoaBC: 1.595%; LiHisRS: 4.124%; TcHisRS: 4.624%
- CN1CCN(C2CCN(Cc3noc(C4CC4)n3)CC2)C1=O : Pks13 thioesterase: -27.02%; Toxoplasma: -13.02%; CoaBC: -46.81%; MtTrpRS: -1.63%; LiHisRS: 11.43%; TcHisRS: 5.155%
- CN(Cc1cn2c(n1)CN(CC1CC1)CC2)Cc1ccco1.O=C(O)C(F)(F)F.O=C(O)C(F)(F)F : Toxoplasma: 0.1664%
- CC(C)(O)CN1CCN(C(=O)c2cccn2Cc2ccncc2)CC1 : Toxoplasma: -3.182%; CoaBC: -7.393%; MtTrpRS: 0.5698%; LiHisRS: 11.71%; TcHisRS: 10%
- CSCC[C@H](N)c1nnc(SCc2cc(C)ccc2C)o1 : Pks13 thioesterase: -0.1268%; CoaBC: -0.1215%; MtTrpRS: -0.9646%; LiHisRS: 19.57%; TcHisRS: 9.901%
- CC1CCCN1C1CCN(C(=O)c2cccc(-c3ccoc3)c2)CC1 (stereo not shown) : Pks13 thioesterase: 11.76%; Toxoplasma: -13.7%; CoaBC: -3.586%; MtTrpRS: -4.871%; LiHisRS: 32.88%; TcHisRS: 18.95%
- CCOc1ccc(Cl)c(C(=O)N2CCCSCC2)n1 : Pks13 thioesterase: -6.427%; Toxoplasma: 4.209%; CoaBC: -8.903%; MtTrpRS: -6.134%; LiHisRS: 5.217%; TcHisRS: 2.299%
- CCC(CC)C(=O)N1CCN(Cc2nc3ccccc3c(=O)[nH]2)CC1 : Pks13 thioesterase: 2.579%; Toxoplasma: 12.27%; CoaBC: 1.112%; MtTrpRS: 4.549%; LiHisRS: 4.828%; TcHisRS: 4.563%

Repeated from the top, 2 entries:

| compound | Pks13 thioesterase | Toxoplasma | CoaBC | MtTrpRS | LiHisRS | TcHisRS |
|---|---|---|---|---|---|---|
| `CC(C(=O)N1CCCN(Cc2cscn2)CC1)N1CCOCC1` (stereo not shown) | -12.77 | 5.411 | 4.348 | -5.304 | 14.68 | 10 |
| `COc1ccccc1N1CCC(N2CCOCC(CO)C2)CC1` (stereo not shown) | -16.35 | -21.75 | -20 | 1.941 | 8.571 | 10.31 |